Test results: patent publication US20150233930A1, “METHODS AND COMPOSITIONS EMPLOYING SECRETED PROTEINS THAT REFLECT AUTOPHAGY DYNAMICS WITHIN TUMOR CELLS” (The Wistar Institute of Anatomy and Biology, priority 2014, published 2015)
For at least one compound, name, drawing or mass did not settle the structure.

System: 1205Lu cells
Assay: LC3 immunoblotting of lysates from cells treated with rapamycin or hydroxychloroquine
Type: cell-based, human
Conditions: 1205Lu cells compared to WM793 cells
Experimental: Melanoma cell lines […] and 1205Lu (as well as other cell lines identified in the appropriate figures) were maintained in RPMI 1640 (Invitrogen) supplemented with 10% fetal bovine serum (Sigma), 50 μg/mL gentamicin, and 25 mmol/L HEPES in the presence of 5% CO2 at 37° C. The 3D spheroid cultures were prepared as previously described^1 and cell death was evaluated using the Live/Dead Assay (Invitrogen). Electron microscopy was performed as previously described^1. Immunoblotting was performed on whole cell lysates as previously described. A commercially available polyclonal antibody against actin (I-19) was used (Santa Cruz). A polyclonal antibody against LC3 that was produced by QCB Biologicals was used. Band densities from Western Blots were quantified using Adobe Photoshop CS4 Extended.
The genetically paired melanoma cell lines, WM793 and 1205Lu, were used for initial secretome comparisons due to the inherent genetic heterogeneity across unrelated melanoma cell lines. The 1205Lu cell line is a subclone derived from the lung metastasis of WM793 in athymic mice, thus minimizing protein expression changes caused by genetic differences^14. To determine autophagic capacity in these paired cell lines, electron microscopy of WM793 and 1205Lu grown in complete medium was used to quantify AVs (FIG. 1A). […]

## CO[C@H]1C[C@@H]2CC[C@@H](C)[C@@](O)(O2)C(=O)C(=O)N2CCCC[C@H]2C(=O)O[C@H]([C@H](C)C[C@@H]2CC[C@@H](O)[C@H](OC)C2)CC(=O)[C@H](C)/C=C(\C)[C@@H](O)[C@@H](OC)C(=O)[C@H](C)C[C@H](C)/C=C/C=C/C=C/1C [rapamycin]
  LC3II/LC3I ratio: increases
